We go through three molecules from paper PMC11536904.

The target in experiment [1] is T1, HA-tagged kinase-dead MST2(K56R) (UniProt Q13188).
T1 sequence: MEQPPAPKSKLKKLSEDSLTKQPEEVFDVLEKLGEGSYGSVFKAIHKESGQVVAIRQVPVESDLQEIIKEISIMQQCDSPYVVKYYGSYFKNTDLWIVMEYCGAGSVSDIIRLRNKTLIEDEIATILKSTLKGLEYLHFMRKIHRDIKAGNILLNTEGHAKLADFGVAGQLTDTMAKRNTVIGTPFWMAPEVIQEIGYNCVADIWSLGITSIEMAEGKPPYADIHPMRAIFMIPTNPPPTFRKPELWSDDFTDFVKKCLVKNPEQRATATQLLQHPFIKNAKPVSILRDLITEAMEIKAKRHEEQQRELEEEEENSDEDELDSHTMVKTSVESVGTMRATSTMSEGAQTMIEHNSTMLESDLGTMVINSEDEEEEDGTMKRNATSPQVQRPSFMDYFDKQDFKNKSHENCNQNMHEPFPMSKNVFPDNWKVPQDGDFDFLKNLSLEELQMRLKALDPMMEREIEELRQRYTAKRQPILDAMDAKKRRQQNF
Kind of experiment: co-IP; HEK cells co-transfected with WT FLAG-FOXF1 and WT or kinase-dead MST1/2; IP with anti-MYC or anti-HA; Dynabeads Protein G kit; FLAG-FOXF1 detected by blot.

The target of experiment [2] is T2, MYC-tagged MST2 (UniProt Q13188).
T2 sequence: T1 sequence with R56K
The description is as above.

In experiment [3] the target is T3, HA-tagged wild-type MST1 (UniProt Q13043).
T3 sequence: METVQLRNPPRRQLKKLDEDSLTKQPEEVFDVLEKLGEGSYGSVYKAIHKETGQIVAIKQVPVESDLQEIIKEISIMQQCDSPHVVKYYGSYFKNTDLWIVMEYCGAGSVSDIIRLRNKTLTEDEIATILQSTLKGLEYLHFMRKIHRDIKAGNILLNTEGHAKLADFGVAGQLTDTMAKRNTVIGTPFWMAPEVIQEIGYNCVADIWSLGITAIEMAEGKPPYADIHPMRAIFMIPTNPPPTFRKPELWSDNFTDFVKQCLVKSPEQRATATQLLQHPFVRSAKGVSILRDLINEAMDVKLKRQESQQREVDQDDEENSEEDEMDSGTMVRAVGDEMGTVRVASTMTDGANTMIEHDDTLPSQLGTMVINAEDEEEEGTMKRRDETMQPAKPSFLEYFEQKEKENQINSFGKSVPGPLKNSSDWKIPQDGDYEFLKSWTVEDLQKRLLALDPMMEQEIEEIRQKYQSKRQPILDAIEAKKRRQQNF
Described as above.

For experiment [4], the target named is T4, MYC-tagged kinase-dead MST1(K59R) (UniProt Q13043).
T4 sequence: T3 sequence with K59R
Described as above.

Experiment [5] deals with T2, MYC-tagged MST2. Put plainly: co-IP; HEK293T co-transfected with WT FLAG-FOXF1 and MYC-MST1 or MYC-MST2; whole-cell lysates; IP with anti-MYC or anti-FLAG; protein G agarose beads (WT constructs); western blot.
Experiment [6] concerns the target T5, MYC-tagged MST1 (UniProt Q13043).
T5 sequence: T3 sequence
The description is as above.

Experiment [7] deals with T6, Endogenous MST2 of the transfected cells (Fig. 4C) (human (endogenous in the transfected cells; HEK293T is named for immunoprecipitation transfections)) (UniProt Q13188).
T6 sequence: T1 sequence with R56K
Put plainly: co-IP; transfected epitope-tagged FOXF1 (mutants V96L, S101P) and endogenous MST2; IP with antibodies against MST2; blots for MST2 and FOXF1.

Residue numbers refer to the chain shown, from its start. Names may count otherwise. Results are given in words; binding and its absence hold for the method and conditions named. Binding seen in cells or lysates may run through a third protein. Some entries that bind do so weakly or less than the wild type. Where a sequence is shown, tags or fusion partners need not be part of it.

B1: FLAG-tagged wild-type FOXF1 (Forkhead box F1) (protein, UniProt Q12946 1-379)
chain: MSSAPEKQQPPHGGGGGGGGGGGAAMDPASSGPSKAKKTNAGIRRPEKPPYSYIALIVMAIQSSPTKRLTLSEIYQFLQSRFPFFRGSYQGWKNSVRHNLSLNECFIKLPKGLGRPGKGHYWTIDPASEFMFEEGSFRRRPRGFRRKCQALKPMYSMMNGLGFNHLPDTYGFQGSAGGLSCPPNSLALEGGLGMMNGHLPGNVDGMALPSHSVPHLPSNGGHSYMGGCGGAAAGEYPHHDSSVPASPLLPTGAGGVMEPHAVYSGSAAAWPPSASAALNSGASYIKQQPLSPCNPAANPLSGSLSTHSLEQPYLHQNSHNAPAELQGIPRYHSQSPSMCDRKEFVFSFNAMASSSMHSAGGGSYYHQQVTYQDIKPCVM
Consider B1, for which the binding result in experiment [1], in experiment [2], in experiment [3], in experiment [4], in experiment [5] and in experiment [6] was “binds” in each case.

B2: Epitope-tagged FOXF1 V96L mutant (protein, UniProt Q12946 1-379)
chain: B1 chain with V96L
Consider B2, for which, in experiment [7], the binding result is “binds”.

B3: Epitope-tagged FOXF1 S101P mutant (protein, UniProt Q12946 1-379)
chain: B1 chain with S101P
With B3, the binding entry in experiment [7] is reported as “binds”.
